Laboratory results taken from article PMC8529494.
No constants are given. Whether binding was seen depends on the method and setting. In cells and extracts the contact can be indirect. A yes stands for co-enrichment or nearness to the bait. Other partners may have been found.

By UniProt entry, the sequences of proteins in these tests, tags left out.
UniProt Q92794: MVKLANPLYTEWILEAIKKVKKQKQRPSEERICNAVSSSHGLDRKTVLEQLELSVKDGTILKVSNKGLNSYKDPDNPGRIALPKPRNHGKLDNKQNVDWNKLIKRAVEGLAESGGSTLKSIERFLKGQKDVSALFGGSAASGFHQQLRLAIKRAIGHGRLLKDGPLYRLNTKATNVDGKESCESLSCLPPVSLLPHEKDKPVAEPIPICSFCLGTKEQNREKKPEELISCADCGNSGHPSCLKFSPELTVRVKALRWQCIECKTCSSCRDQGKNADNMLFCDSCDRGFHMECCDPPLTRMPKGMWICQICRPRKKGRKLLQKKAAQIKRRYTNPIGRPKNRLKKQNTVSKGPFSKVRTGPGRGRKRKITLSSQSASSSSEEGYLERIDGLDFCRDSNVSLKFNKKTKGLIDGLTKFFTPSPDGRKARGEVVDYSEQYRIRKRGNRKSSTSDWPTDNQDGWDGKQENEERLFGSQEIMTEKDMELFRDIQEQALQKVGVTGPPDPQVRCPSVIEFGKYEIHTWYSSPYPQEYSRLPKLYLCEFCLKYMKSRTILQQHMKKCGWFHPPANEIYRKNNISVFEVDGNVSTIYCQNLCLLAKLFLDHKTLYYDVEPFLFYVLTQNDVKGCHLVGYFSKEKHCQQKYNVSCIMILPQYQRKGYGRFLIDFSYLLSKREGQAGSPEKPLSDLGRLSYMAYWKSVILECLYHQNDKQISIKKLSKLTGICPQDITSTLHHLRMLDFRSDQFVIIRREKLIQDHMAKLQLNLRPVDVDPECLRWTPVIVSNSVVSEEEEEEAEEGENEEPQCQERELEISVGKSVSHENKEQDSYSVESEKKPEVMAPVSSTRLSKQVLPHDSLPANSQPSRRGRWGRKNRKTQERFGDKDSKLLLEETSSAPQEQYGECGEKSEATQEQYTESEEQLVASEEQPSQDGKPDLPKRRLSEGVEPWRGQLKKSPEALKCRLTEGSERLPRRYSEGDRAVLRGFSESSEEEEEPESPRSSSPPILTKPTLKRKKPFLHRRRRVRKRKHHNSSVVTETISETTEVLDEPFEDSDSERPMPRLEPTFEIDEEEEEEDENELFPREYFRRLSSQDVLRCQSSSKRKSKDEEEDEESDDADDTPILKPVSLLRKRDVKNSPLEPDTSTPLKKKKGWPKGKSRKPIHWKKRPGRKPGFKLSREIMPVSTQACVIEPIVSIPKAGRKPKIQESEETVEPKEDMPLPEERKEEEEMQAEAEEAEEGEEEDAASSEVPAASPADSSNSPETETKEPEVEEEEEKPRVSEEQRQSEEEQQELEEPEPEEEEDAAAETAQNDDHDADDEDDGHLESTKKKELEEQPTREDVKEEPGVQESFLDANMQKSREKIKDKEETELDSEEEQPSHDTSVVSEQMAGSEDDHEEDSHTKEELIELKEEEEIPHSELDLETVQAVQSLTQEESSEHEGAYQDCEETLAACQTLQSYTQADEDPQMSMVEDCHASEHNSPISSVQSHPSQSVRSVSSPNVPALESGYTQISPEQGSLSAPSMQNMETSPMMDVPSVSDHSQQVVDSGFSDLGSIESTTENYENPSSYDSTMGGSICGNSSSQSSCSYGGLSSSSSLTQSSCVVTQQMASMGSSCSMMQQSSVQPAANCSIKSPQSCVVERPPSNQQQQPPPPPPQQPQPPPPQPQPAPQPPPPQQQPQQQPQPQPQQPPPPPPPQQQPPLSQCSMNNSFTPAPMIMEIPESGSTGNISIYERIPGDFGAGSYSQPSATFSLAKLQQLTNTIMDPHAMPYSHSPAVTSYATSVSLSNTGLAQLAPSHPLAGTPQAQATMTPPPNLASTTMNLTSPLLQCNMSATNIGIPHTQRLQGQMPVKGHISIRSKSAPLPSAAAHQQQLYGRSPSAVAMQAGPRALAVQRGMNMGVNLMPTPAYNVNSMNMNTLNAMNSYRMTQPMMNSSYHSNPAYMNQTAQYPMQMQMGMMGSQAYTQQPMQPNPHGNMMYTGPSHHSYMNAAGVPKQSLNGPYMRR
UniProt P84022: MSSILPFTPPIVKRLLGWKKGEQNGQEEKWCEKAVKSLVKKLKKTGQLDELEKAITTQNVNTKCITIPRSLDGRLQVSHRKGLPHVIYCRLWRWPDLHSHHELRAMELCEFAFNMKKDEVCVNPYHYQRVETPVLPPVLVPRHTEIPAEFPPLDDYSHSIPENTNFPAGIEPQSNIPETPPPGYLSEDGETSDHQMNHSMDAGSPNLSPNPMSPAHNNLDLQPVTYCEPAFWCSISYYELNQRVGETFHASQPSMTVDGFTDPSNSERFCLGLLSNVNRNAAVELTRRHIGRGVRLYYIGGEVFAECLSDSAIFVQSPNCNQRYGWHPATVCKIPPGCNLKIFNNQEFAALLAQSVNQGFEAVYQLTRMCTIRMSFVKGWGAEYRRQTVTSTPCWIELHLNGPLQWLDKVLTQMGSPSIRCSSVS

Target: Flag-tagged KAT6A (lysine acetyltransferase 6A) (UniProt Q92794)
Experiment: affinity purification with mass spectrometry; KAT6A complex purified from MDA-MB-231 cells transduced with Flag-tagged KAT6A; MS of the precipitate

binding: binds
Substance: SMAD3, endogenous (from UniProt P84022 1-425)
